Results are given in words; binding and its absence hold for the method and conditions named. Binding seen in cells or lysates may run through a third protein. Some binding calls cover weakened binding; strength is not graded here. Where a sequence is shown, tags or fusion partners need not be part of it. One block for each molecule: values may come before it.
Experiments:
[1] = target: T1, Flag-tagged murine LAPTM5 (Laptm5) (mouse) (UniProt Q61168); experiment: co-IP; IP from lysates of LAPTM5-overexpressing 786-O or Renca cells, with or without BMP4; Protein G magnetic beads, IgG control, immunoblot
T1 sequence: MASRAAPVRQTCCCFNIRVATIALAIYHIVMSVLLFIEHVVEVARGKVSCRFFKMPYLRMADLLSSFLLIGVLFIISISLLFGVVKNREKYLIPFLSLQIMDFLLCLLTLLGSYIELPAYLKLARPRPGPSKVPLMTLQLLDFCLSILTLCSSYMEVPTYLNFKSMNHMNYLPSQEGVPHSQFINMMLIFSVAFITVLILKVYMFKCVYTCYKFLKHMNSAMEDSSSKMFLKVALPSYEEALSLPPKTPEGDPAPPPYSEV

Amino acid sequences for entries named in this document (tags omitted). A change or cut given only in a name is not applied to a line headed by its entry. Residues count along the entry.
UniProt P36894, residues 24-532: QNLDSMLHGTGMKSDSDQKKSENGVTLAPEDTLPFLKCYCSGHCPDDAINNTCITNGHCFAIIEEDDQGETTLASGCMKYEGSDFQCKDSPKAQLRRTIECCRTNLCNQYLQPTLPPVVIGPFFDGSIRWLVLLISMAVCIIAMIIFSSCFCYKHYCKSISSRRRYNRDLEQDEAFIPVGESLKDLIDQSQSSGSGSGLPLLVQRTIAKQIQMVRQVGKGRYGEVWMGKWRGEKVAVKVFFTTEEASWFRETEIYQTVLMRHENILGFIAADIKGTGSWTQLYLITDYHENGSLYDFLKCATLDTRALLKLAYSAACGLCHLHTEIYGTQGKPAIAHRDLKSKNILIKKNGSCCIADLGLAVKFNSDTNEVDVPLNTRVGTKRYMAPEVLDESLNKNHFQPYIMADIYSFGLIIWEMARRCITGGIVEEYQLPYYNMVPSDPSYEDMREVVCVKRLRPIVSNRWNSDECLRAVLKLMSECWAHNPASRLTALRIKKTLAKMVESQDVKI
UniProt O00308: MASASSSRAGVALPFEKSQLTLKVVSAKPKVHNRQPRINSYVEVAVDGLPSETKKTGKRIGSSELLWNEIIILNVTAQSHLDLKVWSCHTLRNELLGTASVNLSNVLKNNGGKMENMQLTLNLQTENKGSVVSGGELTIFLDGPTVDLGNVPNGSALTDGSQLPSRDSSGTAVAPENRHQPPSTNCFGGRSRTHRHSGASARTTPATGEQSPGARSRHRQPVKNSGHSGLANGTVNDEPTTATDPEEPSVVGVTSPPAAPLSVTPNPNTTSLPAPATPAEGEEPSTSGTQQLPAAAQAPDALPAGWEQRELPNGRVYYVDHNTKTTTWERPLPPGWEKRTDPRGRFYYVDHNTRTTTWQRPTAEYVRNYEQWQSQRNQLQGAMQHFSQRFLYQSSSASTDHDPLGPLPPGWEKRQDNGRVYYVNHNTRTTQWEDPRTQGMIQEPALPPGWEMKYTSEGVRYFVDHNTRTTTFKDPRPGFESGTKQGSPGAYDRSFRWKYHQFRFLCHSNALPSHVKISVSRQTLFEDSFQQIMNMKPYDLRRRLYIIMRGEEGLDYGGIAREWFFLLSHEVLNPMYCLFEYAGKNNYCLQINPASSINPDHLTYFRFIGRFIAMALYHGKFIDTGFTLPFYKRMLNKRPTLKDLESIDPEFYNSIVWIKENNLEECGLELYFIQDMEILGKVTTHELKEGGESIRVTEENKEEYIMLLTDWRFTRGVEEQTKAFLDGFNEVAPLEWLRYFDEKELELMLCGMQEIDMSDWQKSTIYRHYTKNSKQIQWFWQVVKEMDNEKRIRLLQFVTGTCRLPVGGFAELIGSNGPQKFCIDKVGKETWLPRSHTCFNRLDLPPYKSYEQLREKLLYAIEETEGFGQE
UniProt Q9DBH0: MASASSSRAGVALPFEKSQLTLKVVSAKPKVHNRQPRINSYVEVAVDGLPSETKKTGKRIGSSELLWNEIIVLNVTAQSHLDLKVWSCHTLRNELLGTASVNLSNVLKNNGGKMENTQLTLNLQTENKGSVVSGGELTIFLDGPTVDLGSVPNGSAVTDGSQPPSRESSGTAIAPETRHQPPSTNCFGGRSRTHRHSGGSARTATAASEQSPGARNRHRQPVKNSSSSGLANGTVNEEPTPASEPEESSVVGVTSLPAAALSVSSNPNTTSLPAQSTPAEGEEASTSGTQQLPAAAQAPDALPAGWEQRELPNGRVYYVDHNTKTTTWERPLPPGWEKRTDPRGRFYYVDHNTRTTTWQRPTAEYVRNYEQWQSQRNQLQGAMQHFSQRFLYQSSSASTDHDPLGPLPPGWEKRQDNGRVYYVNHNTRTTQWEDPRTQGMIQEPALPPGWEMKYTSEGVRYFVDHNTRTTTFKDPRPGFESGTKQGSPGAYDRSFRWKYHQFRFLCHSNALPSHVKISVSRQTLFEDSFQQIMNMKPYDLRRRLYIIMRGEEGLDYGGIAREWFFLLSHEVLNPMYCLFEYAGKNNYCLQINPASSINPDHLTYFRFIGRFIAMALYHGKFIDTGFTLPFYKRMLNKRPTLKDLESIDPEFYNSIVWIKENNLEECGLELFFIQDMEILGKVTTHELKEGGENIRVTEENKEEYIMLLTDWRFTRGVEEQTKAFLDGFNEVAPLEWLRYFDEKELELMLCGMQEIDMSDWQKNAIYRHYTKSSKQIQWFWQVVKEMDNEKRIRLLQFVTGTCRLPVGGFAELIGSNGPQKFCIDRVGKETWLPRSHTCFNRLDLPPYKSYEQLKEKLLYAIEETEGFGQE

[2] = target: T2, Flag-tagged human lysosomal protein transmembrane 5 (LAPTM5) (human) (UniProt Q13571); experiment: co-IP; IP and immunoblot of 786-O cells transfected with Flag-LAPTM5 and vector, Myc-tagged full-length WWP2 or deletion mutants
T2 sequence: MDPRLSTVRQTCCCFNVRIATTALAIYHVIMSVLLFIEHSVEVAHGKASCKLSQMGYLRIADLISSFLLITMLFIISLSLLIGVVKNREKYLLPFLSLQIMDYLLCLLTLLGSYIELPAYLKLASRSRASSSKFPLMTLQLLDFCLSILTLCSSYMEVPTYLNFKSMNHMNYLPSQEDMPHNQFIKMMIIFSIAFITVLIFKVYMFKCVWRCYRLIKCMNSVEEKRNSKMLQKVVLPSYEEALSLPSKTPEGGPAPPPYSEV

[3] = target: T3, LAPTM5 in 4T1^luci cells (not stated (murine 4T1 cells; human and mouse cDNA cloned)) (UniProt Q61168); experiment: co-IP; immunoprecipitation in 4T1^luci cells, with or without BMP4
T3 sequence: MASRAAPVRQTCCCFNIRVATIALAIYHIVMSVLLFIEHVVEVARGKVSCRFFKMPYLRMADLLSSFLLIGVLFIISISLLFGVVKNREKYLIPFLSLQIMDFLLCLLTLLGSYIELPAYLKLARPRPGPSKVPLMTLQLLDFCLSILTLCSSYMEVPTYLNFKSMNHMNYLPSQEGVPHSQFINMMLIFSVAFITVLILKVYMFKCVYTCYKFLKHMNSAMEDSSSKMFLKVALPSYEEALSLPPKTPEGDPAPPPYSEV

[4] = target: Myc-tagged human BMP receptor 1A (BMPR1A) (human) (UniProt P36894); experiment: co-IP; 786-O cells transfected with Myc-BMPR1A and Flag-LAPTM5 or HA-WWP2 (or all three), with or without BMP4; IP and immunoblot
[5] = target: HA-tagged full-length human WWP2 (human) (UniProt O00308); experiment: co-IP; serial IP: anti-Myc (first round) then anti-HA (second round) from 293T cells transfected with Flag-LAPTM5, HA-WWP2 and Myc-BMPR1A; immunoblot
[6] = target: Myc-tagged human BMP receptor 1A (BMPR1A) (human) (UniProt P36894); experiment: as above

binding [1]: binds
Molecule: WWP2, endogenous in Renca cells (from UniProt Q9DBH0 1-870) (enzyme)

binding [3]: binds
Molecule: WWP2 in 4T1^luci cells (from UniProt Q9DBH0 1-870) (enzyme)

More lines, now with the values behind:

Molecule: Myc-tagged WWP2 deletion mutant 407–868 (from UniProt O00308 407-868) (domain or fragment)
binding [2]: binds

B1: Flag-tagged human lysosomal protein transmembrane 5 (LAPTM5) (protein, UniProt Q13571 1-262)
chain: MDPRLSTVRQTCCCFNVRIATTALAIYHVIMSVLLFIEHSVEVAHGKASCKLSQMGYLRIADLISSFLLITMLFIISLSLLIGVVKNREKYLLPFLSLQIMDYLLCLLTLLGSYIELPAYLKLASRSRASSSKFPLMTLQLLDFCLSILTLCSSYMEVPTYLNFKSMNHMNYLPSQEDMPHNQFIKMMIIFSIAFITVLIFKVYMFKCVWRCYRLIKCMNSVEEKRNSKMLQKVVLPSYEEALSLPSKTPEGGPAPPPYSEV
binding [4]: binds | binding [5]: binds | binding [6]: binds
